Source: publication PMC10314917
Results are given in words; binding and its absence hold for the method and conditions named. In cells and extracts the contact can be indirect. A yes stands for co-enrichment or nearness to the bait. Other partners may have been found.

Sequences of proteins named here, by UniProt entry; tags and fusion partners are left off.
UniProt Q9UBU8: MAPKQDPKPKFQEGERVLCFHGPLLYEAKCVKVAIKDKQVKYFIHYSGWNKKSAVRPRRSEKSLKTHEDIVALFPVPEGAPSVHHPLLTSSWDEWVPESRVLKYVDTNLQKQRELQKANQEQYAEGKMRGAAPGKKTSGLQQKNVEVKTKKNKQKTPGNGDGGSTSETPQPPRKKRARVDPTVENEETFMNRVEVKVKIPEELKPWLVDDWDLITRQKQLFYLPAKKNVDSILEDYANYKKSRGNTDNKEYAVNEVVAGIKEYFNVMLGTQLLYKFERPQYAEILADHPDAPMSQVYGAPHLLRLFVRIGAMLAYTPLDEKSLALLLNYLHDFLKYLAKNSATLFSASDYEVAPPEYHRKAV
UniProt Q9Y5B9: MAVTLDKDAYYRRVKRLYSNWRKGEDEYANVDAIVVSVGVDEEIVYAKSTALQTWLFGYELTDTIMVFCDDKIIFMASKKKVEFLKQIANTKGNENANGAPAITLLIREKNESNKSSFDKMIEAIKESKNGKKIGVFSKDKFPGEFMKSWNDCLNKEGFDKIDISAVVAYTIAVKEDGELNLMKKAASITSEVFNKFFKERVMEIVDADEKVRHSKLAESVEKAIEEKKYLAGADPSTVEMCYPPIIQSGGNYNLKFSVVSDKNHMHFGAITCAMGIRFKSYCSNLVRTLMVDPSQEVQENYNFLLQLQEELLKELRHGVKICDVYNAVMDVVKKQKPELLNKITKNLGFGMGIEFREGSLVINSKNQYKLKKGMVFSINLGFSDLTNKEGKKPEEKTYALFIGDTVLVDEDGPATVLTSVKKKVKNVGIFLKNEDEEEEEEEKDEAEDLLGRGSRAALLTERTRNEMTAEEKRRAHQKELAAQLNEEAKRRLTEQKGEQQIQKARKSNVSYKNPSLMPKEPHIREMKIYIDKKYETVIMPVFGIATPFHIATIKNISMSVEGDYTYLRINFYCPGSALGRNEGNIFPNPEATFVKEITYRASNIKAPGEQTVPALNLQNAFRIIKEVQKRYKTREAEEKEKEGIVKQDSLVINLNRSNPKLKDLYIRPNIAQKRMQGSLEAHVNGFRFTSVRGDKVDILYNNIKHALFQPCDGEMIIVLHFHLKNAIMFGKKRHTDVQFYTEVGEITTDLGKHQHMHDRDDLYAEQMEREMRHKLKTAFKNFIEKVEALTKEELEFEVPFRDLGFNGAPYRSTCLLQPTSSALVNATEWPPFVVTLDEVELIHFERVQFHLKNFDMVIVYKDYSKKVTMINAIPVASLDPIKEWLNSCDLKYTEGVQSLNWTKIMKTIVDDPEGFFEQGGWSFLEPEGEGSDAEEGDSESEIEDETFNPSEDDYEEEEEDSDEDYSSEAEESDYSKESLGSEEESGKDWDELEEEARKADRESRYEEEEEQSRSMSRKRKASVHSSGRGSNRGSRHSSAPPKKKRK

Experiments:
[1] = molecular target: T1, XPC (human (endogenous in U2OS)) (UniProt Q01831); assay: affinity purification with mass spectrometry; complexes pulled down from solubilized U2OS cell lysates with an anti-endogenous XPC antibody; mass spectrometry
T1 sequence: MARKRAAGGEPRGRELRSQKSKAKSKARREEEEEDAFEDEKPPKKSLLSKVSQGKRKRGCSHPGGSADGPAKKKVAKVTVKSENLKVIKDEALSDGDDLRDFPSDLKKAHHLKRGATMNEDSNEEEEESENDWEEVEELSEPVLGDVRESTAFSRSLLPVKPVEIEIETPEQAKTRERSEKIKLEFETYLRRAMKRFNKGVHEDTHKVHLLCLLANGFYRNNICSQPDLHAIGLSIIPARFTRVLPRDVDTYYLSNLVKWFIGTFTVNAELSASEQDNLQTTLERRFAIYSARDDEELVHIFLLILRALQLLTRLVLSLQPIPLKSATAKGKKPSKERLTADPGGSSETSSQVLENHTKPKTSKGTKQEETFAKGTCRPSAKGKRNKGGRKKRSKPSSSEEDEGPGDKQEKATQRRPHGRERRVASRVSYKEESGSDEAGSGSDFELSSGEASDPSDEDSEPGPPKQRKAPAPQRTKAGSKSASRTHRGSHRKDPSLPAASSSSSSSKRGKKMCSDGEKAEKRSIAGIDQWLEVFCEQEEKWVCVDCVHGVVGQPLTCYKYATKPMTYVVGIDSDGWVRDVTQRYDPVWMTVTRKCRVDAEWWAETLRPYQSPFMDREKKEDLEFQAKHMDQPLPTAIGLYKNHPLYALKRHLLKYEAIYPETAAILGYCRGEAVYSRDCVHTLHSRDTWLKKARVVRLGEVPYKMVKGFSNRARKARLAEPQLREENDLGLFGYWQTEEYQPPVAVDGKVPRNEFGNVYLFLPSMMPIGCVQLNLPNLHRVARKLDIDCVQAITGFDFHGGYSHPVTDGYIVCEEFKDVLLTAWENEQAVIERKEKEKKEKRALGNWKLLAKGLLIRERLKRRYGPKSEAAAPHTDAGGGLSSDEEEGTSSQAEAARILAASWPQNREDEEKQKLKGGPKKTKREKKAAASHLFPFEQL

[2] = molecular target: MRG15 (MORF4-Related Gene on chromosome 15) conjugated with the Flag tag (human) (UniProt Q9UBU8); assay: affinity purification with mass spectrometry; anti-Flag M2 affinity gel incubated with 500 µg whole-cell lysate (NETN buffer) of transfected U2OS cells overnight at 4 °C; eluted with 3x Flag peptide; eluates analysed by mass spectrometry

Substance: SPT16 (SuPpressor of Ty 16) (from UniProt Q9Y5B9 1-1047)
- binding [1]: binds
- binding [2]: binds
